Among the data in PMC8449060, “A fully reversible 25-hydroxy steroid kinase involved in oxygen-independent cholesterol side-chain oxidation” (The Journal of Biological Chemistry, 2021) are binding values, retold here.

This assay concerns the target 25-hydroxy-steroid kinase (25-HSK) from Sterolibacterium denitrificans, recombinant with C-terminal Strep-tag (Sterolibacterium denitrificans). As to the kind of experiment: SEC; gel filtration of recombinant 25-HSK after Strep-Tactin enrichment; native molecular mass 45 ± 5 kDa against 43.3 kDa deduced from the sequence; column and buffer of this run not told; both purified. For orientation: Size exclusion chromatography separates by hydrodynamic size, large species first.

These are yes or no findings as the source states them, for the method shown. Where a sequence is shown, tags or fusion partners need not be part of it.

B1: 25-hydroxy-steroid kinase (25-HSK) from Sterolibacterium denitrificans, recombinant with C-terminal Strep-tag (enzyme, UniProt A0A7Z7HU23 1-379)
chain: MSDTPDLTQVKTSTRDLAVIQERLTAWMAKTLGPGSEPRLSDVRNPGSAGMSSETLLFEMSWKENGVQKTGSFVGRLPPAEDAFPIFPKYDFPLQVGVMRLVEQRSQVPVPKVLWDEPGSEALGMPFFIMARASGEPLPDLPPYPYGGWLAEATPEEQQRLQNSSVAMIAGIHGVKASAGEVAFLQPKRQDGSLMRRIVDDWKDYYEWAREGLDVPLVNEMAAWLEAHWPANDGGNEGVICWGDARPGNILWENFEPTAVLDWEMATFGPREMDVAWLIFFHKYFQYIAMTLGFPEAPMAGYMKRADIIAEYERLSGVKLQNMDWFLGFCVLRMAMFDVRISQRQLRFGERQPEEDHNNYLFTREIIRKILRGEDPWDF
On to B1, for which the binding entry was “no binding”.
